Values from PubChem BioAssay AID1259281 (Sanger Institute, 2017).

- Purpose: 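Find knock-downs that kill colorectal cancer cells alone or strengthen targeted drugs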 (primary screen)
- Cell system: human COLO678 colorectal cancer cell line
- Reagent: siRNA pool against human genes
- Challenge: anchor drugs at fixed doses: BYL719 1 µM, cetuximab 5 µg/ml or trametinib 10 nM; DMSO vehicle for the siRNA-alone arm
- Measured: 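Cell viability compared with non-targeting pool wells, averaged over replicates; knock-down-alone effect also as robust z-score; synergy scores set knock-down plus drug against expected joint effect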
- Direction: robust z-score, siRNA alone: higher = more viable cells; strongly negative means essential
- Call rule: 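Essential (knock-down alone) when the siRNA-alone robust z-score is below -3; otherwise no change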
- Meaning of the calls: active = essential (knock-down alone); inactive = no change
In all, the deposit lists 794 reagents; shown is an unselected part. In the full data, 22 (2.8%) were called active. 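Calls rest on knock-down alone only; drug synergy scores play no part in them.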 Not all columns of the deposit are shown. The record does not give: the amount of reagent, the time to read-out.

PGK1
- robust z-score, siRNA alone: 0.438
- call: inactive

PDK1
- robust z-score, siRNA alone: 0.393
- call: inactive

MAP3K7
- robust z-score, siRNA alone: 0.473
- call: inactive

ACVR2A
- robust z-score, siRNA alone: 0.473
- call: inactive

AXL
- robust z-score, siRNA alone: 0.473
- call: inactive

TNIK
- robust z-score, siRNA alone: 0.473
- call: inactive

PKLR
- robust z-score, siRNA alone: 0.473
- call: inactive

MGA
- robust z-score, siRNA alone: 0.473
- call: inactive

GOLGA5
- robust z-score, siRNA alone: 0.224
- call: inactive

BUB1B
- robust z-score, siRNA alone: -0.273
- call: inactive

JAK2
- robust z-score, siRNA alone: 0.473
- call: inactive

PIK3R1
- robust z-score, siRNA alone: 0.473
- call: inactive

Reformatted: results already given.
gene symbol	robust z-score, siRNA alone	call
JAK2	0.473	inactive
PIK3R1	0.473	inactive
